In PMC8527565:
These are yes or no findings as the source states them, for the method shown. Binding seen in cells or lysates may run through a third protein. Some results given as binding are weak or reduced against the parent protein; the word gives no strength.

The chains behind the UniProt entries cited, without tags or fusion partners.
UniProt Q9UNN5: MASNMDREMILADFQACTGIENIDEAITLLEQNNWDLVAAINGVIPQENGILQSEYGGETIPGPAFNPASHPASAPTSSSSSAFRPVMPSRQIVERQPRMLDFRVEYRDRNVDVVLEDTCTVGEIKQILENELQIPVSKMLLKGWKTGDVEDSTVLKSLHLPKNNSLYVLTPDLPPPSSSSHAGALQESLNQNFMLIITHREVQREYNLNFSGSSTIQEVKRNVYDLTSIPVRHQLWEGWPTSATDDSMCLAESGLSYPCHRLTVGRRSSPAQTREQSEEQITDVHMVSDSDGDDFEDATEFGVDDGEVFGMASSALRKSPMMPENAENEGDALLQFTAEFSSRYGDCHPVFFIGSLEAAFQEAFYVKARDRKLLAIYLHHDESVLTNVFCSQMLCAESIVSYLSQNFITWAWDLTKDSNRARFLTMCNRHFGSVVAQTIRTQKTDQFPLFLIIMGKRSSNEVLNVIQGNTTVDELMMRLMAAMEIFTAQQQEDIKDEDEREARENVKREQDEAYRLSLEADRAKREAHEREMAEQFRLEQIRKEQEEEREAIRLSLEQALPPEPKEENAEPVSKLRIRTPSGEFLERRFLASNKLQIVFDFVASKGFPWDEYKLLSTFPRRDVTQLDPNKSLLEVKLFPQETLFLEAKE
UniProt P49005: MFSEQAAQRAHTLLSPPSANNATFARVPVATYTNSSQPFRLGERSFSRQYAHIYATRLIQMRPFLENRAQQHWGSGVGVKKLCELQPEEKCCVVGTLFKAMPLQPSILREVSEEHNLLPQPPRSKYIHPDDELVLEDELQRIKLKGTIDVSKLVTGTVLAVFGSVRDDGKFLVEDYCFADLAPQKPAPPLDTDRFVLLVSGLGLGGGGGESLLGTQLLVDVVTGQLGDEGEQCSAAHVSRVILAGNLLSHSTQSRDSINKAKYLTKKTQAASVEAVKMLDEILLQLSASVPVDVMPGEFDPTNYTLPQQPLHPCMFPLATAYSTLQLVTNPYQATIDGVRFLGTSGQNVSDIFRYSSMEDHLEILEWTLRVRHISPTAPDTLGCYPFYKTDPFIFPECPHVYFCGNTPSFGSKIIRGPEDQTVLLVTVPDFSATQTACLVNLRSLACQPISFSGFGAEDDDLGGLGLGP

Biological target: FAS-associated factor 1 (FAF1) (human (endogenous in HCT116)) (UniProt Q9UNN5)
Assay: co-IP; immunoprecipitation of endogenous FAF1, Western blot; cells with and without USP7 inhibition (Figure S4M); cell line and buffers not shown

POLD2 (from UniProt P49005 1-469)
binding: binds
